# Library screen at single concentrations

Amino acid sequences for entries named in this document (tags omitted). Residues count along the entry.
UniProt I6X8D2, whole entry: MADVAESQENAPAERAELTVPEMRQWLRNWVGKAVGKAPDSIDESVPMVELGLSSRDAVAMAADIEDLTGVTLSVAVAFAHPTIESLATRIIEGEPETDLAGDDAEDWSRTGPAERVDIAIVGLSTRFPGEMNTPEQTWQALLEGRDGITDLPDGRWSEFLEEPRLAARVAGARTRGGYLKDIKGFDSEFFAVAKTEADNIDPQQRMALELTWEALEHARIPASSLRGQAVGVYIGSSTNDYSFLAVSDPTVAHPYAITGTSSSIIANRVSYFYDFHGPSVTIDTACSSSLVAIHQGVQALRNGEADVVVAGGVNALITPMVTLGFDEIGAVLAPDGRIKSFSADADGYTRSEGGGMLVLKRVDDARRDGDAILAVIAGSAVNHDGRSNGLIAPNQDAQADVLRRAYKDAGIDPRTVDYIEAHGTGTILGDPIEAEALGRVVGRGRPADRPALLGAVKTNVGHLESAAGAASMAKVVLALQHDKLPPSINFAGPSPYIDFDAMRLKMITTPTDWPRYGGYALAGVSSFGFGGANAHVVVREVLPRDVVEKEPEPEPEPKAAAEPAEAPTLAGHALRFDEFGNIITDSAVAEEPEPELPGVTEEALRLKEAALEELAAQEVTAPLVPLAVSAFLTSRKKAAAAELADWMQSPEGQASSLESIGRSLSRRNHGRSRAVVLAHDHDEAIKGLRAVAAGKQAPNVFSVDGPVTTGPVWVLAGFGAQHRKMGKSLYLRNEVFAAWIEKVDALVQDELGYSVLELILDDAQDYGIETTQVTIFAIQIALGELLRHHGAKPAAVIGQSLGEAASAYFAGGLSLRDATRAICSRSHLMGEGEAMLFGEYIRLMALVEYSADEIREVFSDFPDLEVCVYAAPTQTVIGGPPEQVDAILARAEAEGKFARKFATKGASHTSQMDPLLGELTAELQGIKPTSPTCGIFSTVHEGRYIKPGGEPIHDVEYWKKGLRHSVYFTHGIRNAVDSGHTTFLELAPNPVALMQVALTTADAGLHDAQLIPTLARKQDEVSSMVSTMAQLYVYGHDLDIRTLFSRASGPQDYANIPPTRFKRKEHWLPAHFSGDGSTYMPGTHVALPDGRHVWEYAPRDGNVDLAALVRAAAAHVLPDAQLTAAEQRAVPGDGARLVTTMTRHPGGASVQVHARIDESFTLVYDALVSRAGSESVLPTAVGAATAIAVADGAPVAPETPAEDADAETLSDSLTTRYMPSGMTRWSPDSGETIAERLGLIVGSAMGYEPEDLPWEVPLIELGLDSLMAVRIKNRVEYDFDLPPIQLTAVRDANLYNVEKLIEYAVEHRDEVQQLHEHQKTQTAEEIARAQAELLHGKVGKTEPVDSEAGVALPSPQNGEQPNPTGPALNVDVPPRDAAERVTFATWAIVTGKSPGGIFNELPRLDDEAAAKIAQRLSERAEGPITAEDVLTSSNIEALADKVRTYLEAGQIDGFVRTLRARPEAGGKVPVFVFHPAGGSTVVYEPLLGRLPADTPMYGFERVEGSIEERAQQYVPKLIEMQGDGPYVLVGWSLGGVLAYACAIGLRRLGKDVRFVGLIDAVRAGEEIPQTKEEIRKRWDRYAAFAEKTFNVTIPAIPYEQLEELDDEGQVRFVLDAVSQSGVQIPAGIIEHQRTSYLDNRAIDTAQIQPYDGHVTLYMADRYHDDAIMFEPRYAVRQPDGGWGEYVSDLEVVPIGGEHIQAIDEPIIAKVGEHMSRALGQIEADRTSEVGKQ
UniProt Q8IDJ8, 1-583: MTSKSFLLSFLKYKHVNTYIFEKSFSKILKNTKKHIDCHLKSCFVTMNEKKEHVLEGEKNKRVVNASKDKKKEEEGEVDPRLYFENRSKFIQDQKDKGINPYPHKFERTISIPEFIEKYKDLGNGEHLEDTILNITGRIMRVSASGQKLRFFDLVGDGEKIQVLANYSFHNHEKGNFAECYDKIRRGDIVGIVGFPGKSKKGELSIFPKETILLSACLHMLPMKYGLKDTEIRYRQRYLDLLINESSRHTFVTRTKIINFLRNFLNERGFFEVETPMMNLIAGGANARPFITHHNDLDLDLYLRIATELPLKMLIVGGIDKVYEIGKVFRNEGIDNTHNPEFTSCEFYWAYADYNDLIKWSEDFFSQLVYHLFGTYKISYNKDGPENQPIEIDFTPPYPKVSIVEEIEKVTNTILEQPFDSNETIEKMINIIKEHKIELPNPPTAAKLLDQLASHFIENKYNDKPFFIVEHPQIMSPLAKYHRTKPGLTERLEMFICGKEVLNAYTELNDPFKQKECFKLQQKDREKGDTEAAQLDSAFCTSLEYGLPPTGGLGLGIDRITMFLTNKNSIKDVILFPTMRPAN
UniProt A4I591, 1-473: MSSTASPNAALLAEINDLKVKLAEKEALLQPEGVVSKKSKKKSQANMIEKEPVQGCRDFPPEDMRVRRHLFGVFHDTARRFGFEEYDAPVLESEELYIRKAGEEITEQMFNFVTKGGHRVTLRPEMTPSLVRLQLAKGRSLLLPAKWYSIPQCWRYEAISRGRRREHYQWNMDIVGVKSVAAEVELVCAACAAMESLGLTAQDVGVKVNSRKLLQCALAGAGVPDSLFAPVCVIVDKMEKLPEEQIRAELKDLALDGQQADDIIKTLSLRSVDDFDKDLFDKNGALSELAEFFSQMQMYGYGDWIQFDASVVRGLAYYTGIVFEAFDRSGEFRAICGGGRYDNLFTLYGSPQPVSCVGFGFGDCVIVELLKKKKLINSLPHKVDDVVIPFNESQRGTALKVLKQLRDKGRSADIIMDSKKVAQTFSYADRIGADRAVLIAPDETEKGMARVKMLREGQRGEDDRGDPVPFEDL
UniProt Q4DA54, 1-478: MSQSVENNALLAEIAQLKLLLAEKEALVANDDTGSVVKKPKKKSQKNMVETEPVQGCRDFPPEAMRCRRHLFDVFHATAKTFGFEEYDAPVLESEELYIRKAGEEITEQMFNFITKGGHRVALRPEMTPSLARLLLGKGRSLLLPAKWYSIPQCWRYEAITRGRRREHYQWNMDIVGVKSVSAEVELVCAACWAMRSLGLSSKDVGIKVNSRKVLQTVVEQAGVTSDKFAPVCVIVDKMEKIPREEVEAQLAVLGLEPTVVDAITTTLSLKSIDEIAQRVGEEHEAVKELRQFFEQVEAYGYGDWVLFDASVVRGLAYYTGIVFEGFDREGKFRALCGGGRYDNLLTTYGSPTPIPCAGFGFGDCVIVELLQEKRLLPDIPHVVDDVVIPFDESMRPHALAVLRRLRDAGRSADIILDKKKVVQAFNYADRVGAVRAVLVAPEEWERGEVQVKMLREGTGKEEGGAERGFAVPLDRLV

Pks13 thioesterase: 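Enzyme assay of the thioesterase domain of polyketide synthase 13; the read-out is not stated. Target: Polyketide synthase Pks13, Mycobacterium tuberculosis (UniProt I6X8D2). Tested at 30 µM. Higher reads as stronger inhibition (inferred from which compounds were picked for retests). About 67,000 compounds were tested under these conditions; 0.46% (about 300) showed 50% or more at least once.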
PfKRS1: 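Enzyme assay of the cytosolic lysyl-tRNA synthetase in 384-well plates, read by luminescence. Target: Lysine-tRNA ligase, Plasmodium falciparum 3D7 (UniProt Q8IDJ8). Concentration: 30 µM. Higher reads as stronger inhibition, judged from the few compounds that gave an IC50. Of about 69,000 compounds tested this way, about 49 (0.071%) reached 50% or more in at least one test.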
LiHisRS: 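Enzyme assay of histidyl-tRNA synthetase; the read-out is not stated. Target: Histidine-tRNA ligase, Leishmania infantum (UniProt A4I591). Tested at 30 µM. Direction is inferred from retests: higher values go with stronger inhibition. The assay is labelled LdHisRS but filed under L. infantum. About 69,000 compounds were tested under these conditions; 0.6% (about 410) showed 50% or more at least once.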
TcHisRS: 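Histidine-tRNA ligase, Trypanosoma cruzi CL Brener (UniProt Q4DA54). Enzyme assay of histidyl-tRNA synthetase; the read-out is not stated. Compounds at 30 µM. Direction is inferred from retests: higher values go with stronger inhibition. Of about 69,000 compounds tested this way, about 31 (0.045%) reached 50% or more in at least one test.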

The filed quantity is “Percent Effect” (%).
How 0% and 100% were set is not recorded. Most values in the screen are low, and negative values occur.
This is an unselected part of the compounds tested.

structure | Pks13 thioesterase | PfKRS1 | LiHisRS | TcHisRS
CC(C)(C)NC(=O)c1cnc2n1CCCC2 | 0.2152% | 1.917% | 7.843% | 7.407%
Cc1cc(C)n(C2CCCN(C(=O)COCC(F)(F)F)C2)n1 (stereo not drawn) | 1.812% | 4.712% | -12.77% | 0%
CO[C@H]1CN(C(=O)OC(C)(C)C)CC1NCc1cccn1C (stereo partly drawn) | -28.49% | 1.843% | 10.53% | 1.754%
N#Cc1cc2c(=O)n(CC(O)Cc3ccccc3)ccc2[nH]c1=O (stereo not drawn) | -14.08% | 4.362% | 0% | 4.712%
Oc1nc(N2CCOCC2)nc2c1CCN(Cc1ccc(F)cc1)CC2 | 3.927% | 3.297% | 14.43% | 11.11%
COc1ccc2c(c1)C(=O)NC1(CC2)CCN(Cc2ccccn2)C1 (stereo not drawn) | -6.442% | 0.9248% | 7.246% | 8.333%
O=C(Nc1cnccn1)[C@@H]1COC[C@H]2CN(C3CCC3)C[C@H]21 | 6.202% | -1.877% | 12.35% | -6.748%
COC1(CNC(=O)c2cccc(C#N)c2)CCSC1 (stereo not drawn) | -5.315% | -6.307% | 14.63% | 7.212%
CN(Cc1nc2ccsc2c(=O)[nH]1)C[C@@H]1CCCN2CCCC[C@H]12 | 0.2263% | -5.051% | 22.86% | 2.062%
O=C(c1cscn1)N1CC[C@@H]2[C@@H]1CCN2CC1CCOCC1 | 1.161% | 3.865% | 13.21% | -2.222%
CCCN(C1CCc2ccccc2C1)S(C)(=O)=O (stereo not drawn) | -18.53% | -2.766% | 19.4% | 4.255%
Nc1nccnc1C(=O)N1CCN(Cc2cccc3ccccc23)CC1 | -0.1178% | 6.247% | 22.69% | 0%
O=C(Cn1ccc2c(Cl)cccc21)N1CCC2(CC1)OCCO2 | -11.3% | 4.248% | 9.524% | -2.479%
O=C(c1cnc2n1CCN(Cc1ccccc1)C2)N1CCCC1 | -3.279% | 0.2239% | 24% | 10.78%
Cc1oc(-c2ccco2)nc1CC(=O)N1CCN(C2CCC2)CC1 | -13.98% | -3.31% | 8% | 2.642%
Cn1ccnc1-c1noc(NCc2ccccc2)n1 | -13.01% | 1.482% | 14.89% | 15.61%
CCOc1ccc2c(c1)C=C(C(=O)NC(C)Cn1cccn1)CO2 (stereo not drawn) | -8.262% | 8.36% | 8% | 5.978%
Cc1ccc(NC(=O)CN[C@H](C(N)=O)C(C)C)cc1F | -25.31% | 5.89% | 9.804% | 0%
O=C(Nc1nccs1)NC1CCN(CC2CCCC2)CC1 | -9.642% | 0.5154% | 10.19% | 5.572%
CCn1c(C)cc(C(=O)N2CCC(Nc3cccnn3)CC2)c1C | 6.502% | 3.683% | 19.75% | 6.748%
COc1cccc(CC(=O)N2CC[C@H]3[C@@H]2CCC(=O)N3C)c1 | -5.129% | -1.728% | 7.018% | 7.527%
Cc1ccc(CN2CCN(Cc3ccc4nonc4c3)CC2=O)cc1 | 12.52% | 2.464% | 12% | 1.508%
Cc1cc(-c2cc(S(=O)(=O)N3C[C@H](C4CC4)[C@@H](N)C3)c(C)s2)[nH]n1 | -1.938% | 0.4346% | 13.11% | 4.721%
COc1ccc(C(C)NCc2c[nH]nc2C)cc1Br (stereo not drawn) | -10.33% | 1.487% | 6.593% | 1.807%
N#Cc1c(N2CCCCC2)nsc1-c1cccnc1 | -8.133% | -1.815% | 16.81% | 1.327%
COCCC1(CO)CCCN(Cc2ccc(C#N)cc2)C1 (stereo not drawn) | -31.26% | 5.559% | 25% | 6.522%
NC(=O)C(NCc1ccc(Cl)s1)c1ccccc1 (stereo not drawn) | -40.91% | 0.2401% | 15% | 4.902%
CCN1CCN(C2CCN(Cc3nnc(C(C)C)o3)CC2)C1=O | -1.674% | 0.8263% | 6.195% | 3.79%
COc1ccc(CNC2(Cc3cc(CC(C)C)on3)COC2)cc1 | 1.57% | -6.431% | 9.459% | 0%
CCn1cc(CN2CCCn3nc(CNS(C)(=O)=O)cc3C2)c(C)n1 | -0.3046% | 2.833% | 0% | 2.041%
COCCNC(=O)C1(c2ccccc2C)CCOCC1 | -3.077% | 1.132% | 0% | 3.759%
COc1cc(C)nc(N2CCN(C(=O)COC3CCCC3)CC2)n1 | -13.67% | 1.321% | 11.01% | 7.059%
CCc1ccc(CCNc2ncnc3c2CCN(C(=O)C2CC2)C3)cc1 | -54.38% | 2.384% | 20% | 16.88%
CCc1ccc(CN(C)c2ccc(-c3nc(COC)no3)cn2)nc1 | 0.06658% | 0.2574% | 8.8% | -0.5025%
Cc1nc(O)cc(C2CCN(C(=O)c3[nH]nc4c3CC(C)CC4)CC2)n1 (stereo not drawn) | 0.8474% | 3.54% | 14.63% | 4.327%
COc1ccc(OC)c(NC(=O)CSc2ccc3nncn3n2)c1 | 0.5295% | 1.857% | 15.22% | -41.58%

2 of the entries, repeated:

- Cc1nc(O)cc(C2CCN(C(=O)c3[nH]nc4c3CC(C)CC4)CC2)n1 (stereo not drawn) | Pks13 thioesterase: 0.8474%; PfKRS1: 3.54%; LiHisRS: 14.63%; TcHisRS: 4.327%
- COCCC1(CO)CCCN(Cc2ccc(C#N)cc2)C1 (stereo not drawn) | Pks13 thioesterase: -31.26%; PfKRS1: 5.559%; LiHisRS: 25%; TcHisRS: 6.522%

Measurements from “University of Dundee, Small-Polar-MMV Screening Library” (2021), ChEMBL document CHEMBL3988442.